This is an account of results in US8129365B2, “Water-soluble, fluorescent compounds for detection of potassium ions” (The Regents of the University of California, priority 2005, dated 2012).

The subject of the data set is brain cortex ECS. Kind of data set: TAC-Red [K^+]o measurements in brain cortex (spreading depression). The format is in vivo, mice. As to the method:
TAC-Red [K^+]o measurements in brain cortex. Wildtype and AQP4 null mice in a CD1 genetic background (30-35 g body weight/age 10-12 weeks) were used (described in Ma et al. Ma et al. J. Clin. Invest. 100, 957-962 (1997)). These mice are phenotypically normal at baseline and have normal brain architecture; however they manifest altered brain swelling in response to cytotoxic and vasogenic forms of edema. Mice were anesthetized with 2,2,2-tribromoethanol (125 mg/kg, intraperitoneal (ip)) and the head was immobilized in a standard mouse stereotactic frame. Body temperature was maintained at 36-37° C. using a heating pad. The skull was exposed by a midline skin incision. A 2.7 mm diameter circular area of the thin, semi-translucent skull bone located 0.5 mm lateral to the midline and 1 mm posterior to the bregma was removed using a microdrill under microscope to expose intact dura with underlying brain. […]
Fluorescence was measured using a 1.6× objective lens (working distance 24 mm, numerical aperture 0.21), and custom filter set for TAC-Red (HQ, Chroma). […] Fluorescence was imaged using a 14-bit 1024×1024 pixel cooled CCD camera (CoolSnap HQ, Photometrics). […]
Image analysis. […] Half-times (t1/2) for the increasing and decreasing phases of TAC-Red fluorescence were determined by exponential regression analysis. […]
The ECS of mouse brain was stained with TAC-Red by exposing the intact dura (after craniectomy) for 5 minutes to an artificial cerebrospinal fluid (aCSF) solution containing 50 μM TAC-Red. […] This transdural dye labeling approach was developed previously to stain the ECS with fluorescent dextrans for photobleaching measurements (Binder et al. J. Neurosci. 24, 8049-8056 (2004). The TAC-red-stained brain cortex was brightly red fluorescent, with fairly uniform parenchymal staining but no staining of blood vessels. There was little influence of cerebral blood flow on the signal, with less than 2% change in TAC-Red fluorescence when mice breathed 0 vs. 5% CO2.

In the case of `COCCOc1cc(-c2c3ccc(=[N+](C)C)cc-3oc3cc(N(C)C)ccc23)ccc1N1CCOc2cc(C)ccc2N2CCOCCOCCN(CCOCCOCC2)c2ccc(C)cc2OCC1.[Cl-]` [TAC-Red, {6-Dimethylamino-9-[4-(6,7,9,10,12,13,20,21,23,24-decahydro-2,17-dimethyl-5,14-(ethanoxyethanoxyethano)-5H,14H,22H-dibenzo[h,q][1,4,10,16,7,13,19]tetraoxatriazacyclo-heneicosin-22-yl)-3-(2-methoxyethoxy)phenyl]xanthen-3-ylidene}dimethylammonium chloride], the “K^+ wave propagation velocity” value (SE, n=4 mice, from temporal offset in fluorescence profiles) is listed as 4.4±0.5 mm/min. Also, the “Change in TAC-Red fluorescence with cerebral blood flow” value (mice breathed 0 vs. 5% CO2) is reported as “less than 2%”.

On to `O=S(=O)([O-])c1cc(S(=O)(=O)O)ccc1C1=c2cc3c4c(c2Oc2c1cc1c5c2CCCN5CCC1)CCC[N+]=4CCC3` [sulforhodamine 101, reference compound], for which, under “non-K^+-sensitive dye used in place of TAC-Red”, the “Signal changes during spreading depression” value is reported as “no signal changes”.
